Measurements from article PMC5958099.

Sequences of proteins named here, by UniProt entry; tags and fusion partners are left off.
UniProt Q99459: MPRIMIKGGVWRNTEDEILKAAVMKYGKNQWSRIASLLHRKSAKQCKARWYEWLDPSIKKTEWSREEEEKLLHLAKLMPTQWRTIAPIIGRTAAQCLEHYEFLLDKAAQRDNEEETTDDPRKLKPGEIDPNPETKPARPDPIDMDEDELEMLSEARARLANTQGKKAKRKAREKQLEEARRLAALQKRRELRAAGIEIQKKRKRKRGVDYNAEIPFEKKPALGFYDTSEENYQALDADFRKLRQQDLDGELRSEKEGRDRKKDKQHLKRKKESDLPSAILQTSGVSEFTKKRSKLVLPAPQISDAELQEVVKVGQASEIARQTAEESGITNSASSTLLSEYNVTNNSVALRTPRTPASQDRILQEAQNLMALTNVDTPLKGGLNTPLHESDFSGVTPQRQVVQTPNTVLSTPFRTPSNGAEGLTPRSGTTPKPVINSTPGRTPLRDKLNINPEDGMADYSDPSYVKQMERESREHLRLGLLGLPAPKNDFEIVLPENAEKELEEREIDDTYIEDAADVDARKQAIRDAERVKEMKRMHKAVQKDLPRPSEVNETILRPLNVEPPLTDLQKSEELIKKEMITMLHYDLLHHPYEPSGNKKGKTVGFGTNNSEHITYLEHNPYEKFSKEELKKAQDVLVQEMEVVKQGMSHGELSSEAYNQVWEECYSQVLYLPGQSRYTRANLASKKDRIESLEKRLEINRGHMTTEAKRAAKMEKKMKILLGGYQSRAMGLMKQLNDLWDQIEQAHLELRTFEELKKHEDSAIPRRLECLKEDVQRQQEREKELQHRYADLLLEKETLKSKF
UniProt O75643: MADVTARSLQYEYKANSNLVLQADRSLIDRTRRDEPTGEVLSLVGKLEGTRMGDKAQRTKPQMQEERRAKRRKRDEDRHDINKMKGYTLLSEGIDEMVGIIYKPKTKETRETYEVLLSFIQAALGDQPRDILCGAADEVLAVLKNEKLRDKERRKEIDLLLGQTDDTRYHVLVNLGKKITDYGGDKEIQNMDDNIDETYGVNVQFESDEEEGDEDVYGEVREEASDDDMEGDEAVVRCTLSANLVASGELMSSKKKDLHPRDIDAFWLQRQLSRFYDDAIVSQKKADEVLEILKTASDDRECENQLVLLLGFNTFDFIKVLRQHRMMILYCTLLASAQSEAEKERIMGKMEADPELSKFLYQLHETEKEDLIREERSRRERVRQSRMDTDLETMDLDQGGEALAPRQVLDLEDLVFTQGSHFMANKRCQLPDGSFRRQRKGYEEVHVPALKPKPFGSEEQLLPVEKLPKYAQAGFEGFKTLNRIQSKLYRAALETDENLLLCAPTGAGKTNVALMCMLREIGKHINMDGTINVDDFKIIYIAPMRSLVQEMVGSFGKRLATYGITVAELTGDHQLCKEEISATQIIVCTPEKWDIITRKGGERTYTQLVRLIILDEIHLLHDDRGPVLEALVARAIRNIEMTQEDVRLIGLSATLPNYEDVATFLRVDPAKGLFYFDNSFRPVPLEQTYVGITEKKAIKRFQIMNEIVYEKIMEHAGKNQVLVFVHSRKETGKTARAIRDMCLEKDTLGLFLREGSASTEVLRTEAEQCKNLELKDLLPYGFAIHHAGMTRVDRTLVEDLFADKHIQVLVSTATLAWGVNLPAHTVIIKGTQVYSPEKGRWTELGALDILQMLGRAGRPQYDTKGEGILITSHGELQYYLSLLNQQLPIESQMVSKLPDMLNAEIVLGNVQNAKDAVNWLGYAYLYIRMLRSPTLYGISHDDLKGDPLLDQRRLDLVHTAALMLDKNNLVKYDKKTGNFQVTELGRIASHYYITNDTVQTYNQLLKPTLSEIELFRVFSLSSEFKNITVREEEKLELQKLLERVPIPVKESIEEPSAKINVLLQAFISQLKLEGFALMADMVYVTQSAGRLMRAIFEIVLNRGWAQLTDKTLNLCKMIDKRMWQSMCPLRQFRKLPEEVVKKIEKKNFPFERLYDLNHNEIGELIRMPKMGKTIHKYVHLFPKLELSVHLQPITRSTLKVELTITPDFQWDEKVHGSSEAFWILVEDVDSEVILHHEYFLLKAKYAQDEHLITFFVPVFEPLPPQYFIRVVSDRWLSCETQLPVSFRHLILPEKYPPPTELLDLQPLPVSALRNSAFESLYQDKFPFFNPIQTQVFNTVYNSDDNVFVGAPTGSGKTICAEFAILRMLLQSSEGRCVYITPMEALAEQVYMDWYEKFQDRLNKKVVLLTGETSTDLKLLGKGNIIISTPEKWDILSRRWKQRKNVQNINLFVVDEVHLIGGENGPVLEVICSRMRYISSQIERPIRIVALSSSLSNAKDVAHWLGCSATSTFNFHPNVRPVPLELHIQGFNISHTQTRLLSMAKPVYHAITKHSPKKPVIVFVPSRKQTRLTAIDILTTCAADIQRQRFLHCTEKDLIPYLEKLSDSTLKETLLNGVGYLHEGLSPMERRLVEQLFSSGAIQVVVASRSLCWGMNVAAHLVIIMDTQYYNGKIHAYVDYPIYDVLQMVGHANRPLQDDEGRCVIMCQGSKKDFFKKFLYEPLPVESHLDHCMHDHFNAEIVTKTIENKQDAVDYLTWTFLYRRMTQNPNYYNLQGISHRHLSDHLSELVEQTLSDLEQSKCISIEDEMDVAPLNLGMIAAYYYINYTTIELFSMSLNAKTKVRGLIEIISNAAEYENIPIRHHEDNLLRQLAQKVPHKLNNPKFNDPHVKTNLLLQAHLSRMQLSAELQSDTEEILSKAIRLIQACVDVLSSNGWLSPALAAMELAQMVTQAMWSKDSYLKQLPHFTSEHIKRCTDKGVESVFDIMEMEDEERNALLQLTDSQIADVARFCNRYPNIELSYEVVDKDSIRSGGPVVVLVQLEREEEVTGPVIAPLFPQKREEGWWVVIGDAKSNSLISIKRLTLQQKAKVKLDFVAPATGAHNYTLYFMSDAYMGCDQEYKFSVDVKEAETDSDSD

Molecular target: T1, GFP-DNAJC17 fusion protein (mouse) (UniProt Q91WT4)
T1 sequence: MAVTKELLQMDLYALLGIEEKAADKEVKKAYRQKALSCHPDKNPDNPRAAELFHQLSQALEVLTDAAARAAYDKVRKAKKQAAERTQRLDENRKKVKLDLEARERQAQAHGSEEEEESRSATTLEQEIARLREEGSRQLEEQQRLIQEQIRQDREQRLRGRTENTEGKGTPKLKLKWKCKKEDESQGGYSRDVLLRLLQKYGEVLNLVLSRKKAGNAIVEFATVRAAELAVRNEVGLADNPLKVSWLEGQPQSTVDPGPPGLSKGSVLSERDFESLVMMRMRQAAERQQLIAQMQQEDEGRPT
Assay: affinity purification with mass spectrometry; total extracts of tetracycline-induced GFP-DNAJC17 or GFP HeLa cells, GFP trap beads 2 h at 4 °C, lysis buffer 50 mM Tris pH 7.4, 150 mM NaCl, 10 mM EDTA, 2 mM MgCl2, 0.1% Triton X100, washes with 200 mM NaCl; eluates on SDS-PAGE, in-gel trypsin digestion, nanoLC-ESI-LIT-MS/MS

Molecule: CDC5L (from UniProt Q99459 1-802)
binding: binds

B1: PLRG1 (protein, UniProt O43660 1-514)
chain: MVEEVQKHSVHTLVFRSLKRTHDMFVADNGKPVPLDEESHKRKMAIKLRNEYGPVLHMPTSKENLKEKGPQNATDSYVHKQYPANQGQEVEYFVAGTHPYPPGPGVALTADTKIQRMPSESAAQSLAVALPLQTKADANRTAPSGSEYRHPGASDRPQPTAMNSIVMETGNTKNSALMAKKAPTMPKPQWHPPWKLYRVISGHLGWVRCIAVEPGNQWFVTGSADRTIKIWDLASGKLKLSLTGHISTVRGVIVSTRSPYLFSCGEDKQVKCWDLEYNKVIRHYHGHLSAVYGLDLHPTIDVLVTCSRDSTARIWDVRTKASVHTLSGHTNAVATVRCQAAEPQIITGSHDTTIRLWDLVAGKTRVTLTNHKKSVRAVVLHPRHYTFASGSPDNIKQWKFPDGSFIQNLSGHNAIINTLTVNSDGVLVSGADNGTMHLWDWRTGYNFQRVHAAVQPGSLDSESGIFACAFDQSESRLLTAEADKTIKVYREDDTATEETHPVSWKPEIIKRKRF
binding: binds

More lines, now with the values ahead:

binding: binds
Molecule: SNRNP200 (from UniProt O75643 1-2136)

binding: binds
B2: XAB2 (protein, UniProt Q9HCS7 1-855)
chain: MVVMARLSRPERPDLVFEEEDLPYEEEIMRNQFSVKCWLRYIEFKQGAPKPRLNQLYERALKLLPCSYKLWYRYLKARRAQVKHRCVTDPAYEDVNNCHERAFVFMHKMPRLWLDYCQFLMDQGRVTHTRRTFDRALRALPITQHSRIWPLYLRFLRSHPLPETAVRGYRRFLKLSPESAEEYIEYLKSSDRLDEAAQRLATVVNDERFVSKAGKSNYQLWHELCDLISQNPDKVQSLNVDAIIRGGLTRFTDQLGKLWCSLADYYIRSGHFEKARDVYEEAIRTVMTVRDFTQVFDSYAQFEESMIAAKMETASELGREEEDDVDLELRLARFEQLISRRPLLLNSVLLRQNPHHVHEWHKRVALHQGRPREIINTYTEAVQTVDPFKATGKPHTLWVAFAKFYEDNGQLDDARVILEKATKVNFKQVDDLASVWCQCGELELRHENYDEALRLLRKATALPARRAEYFDGSEPVQNRVYKSLKVWSMLADLEESLGTFQSTKAVYDRILDLRIATPQIVINYAMFLEEHKYFEESFKAYERGISLFKWPNVSDIWSTYLTKFIARYGGRKLERARDLFEQALDGCPPKYAKTLYLLYAQLEEEWGLARHAMAVYERATRAVEPAQQYDMFNIYIKRAAEIYGVTHTRGIYQKAIEVLSDEHAREMCLRFADMECKLGEIDRARAIYSFCSQICDPRTTGAFWQTWKDFEVRHGNEDTIKEMLRIRRSVQATYNTQVNFMASQMLKVSGSATGTVSDLAPGQSGMDDMKLLEQRAEQLAAEAERDQPLRAQSKILFVRSDASREELAELAQQVNPEEIQLGEDEDEDEMDLEPNEVRLEQQSVPAAVFGSLKED

No constants are given. Whether binding was seen depends on the method and setting. Binding seen in cells or lysates may run through a third protein. These calls come from enrichment with a bait or labelling near it, and not all partners need be listed. Sequences can lack the tags named with a protein. Each block holds one molecule with its values, some of them ahead of it.
